Experimental data: PubChem BioAssay AID652243 (Drosophila RNAi Screening Center, 2013)

- Test: 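Knock-downs that decrease or increase androgen receptor reporter signal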 (primary screen)
- Cell system: Drosophila S2R+ cells
- Knock-down reagent: long dsRNA against Drosophila genes
- Time to read-out: 72 h (48 h, then 24 h hormone)
- Challenge: synthetic androgen R1881 at 10 nM for 24 h
- Detection: 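Firefly light from an androgen-responsive reporter and Renilla control light per well, raw and unnormalised, for each of two replicates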
- Scale: firefly reporter light: higher = more light from androgen-responsive reporter; Renilla control light: higher = more constitutive control signal (cell number, transfection)
- Hit rule: 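Across duplicate plates, a knock-down whose log firefly/Renilla ratio shifted a set fold down or up from the GFP/LacZ control mean was a hit; the downward cut appears as both 1.5 and 3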
- Meaning of the calls: active = hit: reporter lowered or raised; inactive = no hit
The screen tested about 24,000 reagents; shown is an unselected part of those that have a named target and a result. Over the whole deposit, 246 (1%) are marked active. 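Plates not normalised; calls are printed but the firefly/Renilla ratio behind them is not deposited; fold cut for lowering reported inconsistently.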 Raw values are not corrected between plates. The record does not give: the amount of reagent.

| gene knocked down | DRSC id | firefly reporter light, replicate 1 | firefly reporter light, replicate 2 | Renilla control light, replicate 1 | Renilla control light, replicate 2 | call |
| --- | --- | --- | --- | --- | --- | --- |
| alpha-Catr | DRSC04669 | 1.47e5 | 1.65e5 | 9.72e5 | 1.05e6 | inactive |
| alpha-Catr | DRSC28046 | 2.59e5 | 3.82e5 | 1.04e6 | 9.61e5 | inactive |
| UBL3 | DRSC23292 | 8.40e5 | 9.47e5 | 6.93e5 | 6.79e5 | inactive |
| Hmg-2 | DRSC04554 | 1.17e6 | 9.02e5 | 1.52e6 | 1.38e6 | inactive |
| Hmg-2 | DRSC25355 | 9.17e5 | 8.45e5 | 1.12e6 | 1.17e6 | inactive |
| Acox57D-p | DRSC04560 | 7.94e5 | 7.81e5 | 1.80e6 | 2.18e6 | inactive |
| Rrp4 | DRSC04434 | 6.00e5 | 4.51e5 | 9.44e5 | 1.09e6 | inactive |
| Rrp4 | DRSC29543 | 6.73e5 | 9.30e5 | 1.26e6 | 1.26e6 | inactive |
| GAPsec | DRSC10564 | 9.33e5 | 7.25e5 | 1.33e6 | 1.73e6 | inactive |
| GAPsec | DRSC26128 | 3.54e5 | 3.26e5 | 5.56e5 | 5.99e5 | inactive |
| hydra | DRSC20497 | 2.07e5 | 1.56e5 | 6.24e5 | 4.98e5 | inactive |
| ERR | DRSC10840 | 8.77e5 | 9.72e5 | 9.89e5 | 1.55e6 | inactive |
| Idgf4 | DRSC18675 | 2.10e5 | 2.11e5 | 2.33e6 | 2.61e6 | inactive |
| Idgf4 | DRSC24939 | 4.48e5 | 3.47e5 | 6.94e5 | 6.27e5 | inactive |
| slam | DRSC03240 | 2.11e5 | 1.61e5 | 1.36e6 | 1.07e6 | inactive |
| CG14300 | DRSC14779 | 2.90e5 | 2.26e5 | 3.50e6 | 3.30e6 | inactive |
| CG11593 | DRSC08206 | 1.64e5 | 1.07e5 | 9.48e5 | 1.03e6 | inactive |
| CG11409 | DRSC18579 | 69761 | 54352 | 5.35e5 | 3.67e5 | inactive |
| CG11409 | DRSC28360 | 3.05e5 | 4.58e5 | 1.09e6 | 1.62e6 | inactive |
| CG5835 | DRSC15886 | 2.31e5 | 2.79e5 | 3.09e6 | 3.24e6 | inactive |
| CG5835 | DRSC27415 | 2.37e5 | 4.35e5 | 6.60e5 | 7.63e5 | inactive |
| rib | DRSC07021 | 9.07e5 | 8.01e5 | 1.08e6 | 1.10e6 | inactive |
| drl | DRSC03523 | 1.05e6 | 1.21e6 | 8.61e5 | 9.39e5 | active |
| drl | DRSC28564 | 3.76e5 | 4.75e5 | 9.71e5 | 1.31e6 | active |
| drl | DRSC37026 | – | – | – | – | inactive |

Just “firefly reporter light, replicate 2”, for 2 of the entries above:
CG11409 [DRSC28360]	4.58e5
CG5835 [DRSC15886]	2.79e5
